Data on 1 molecule can be found in patent US20100017897A1.

In the experiment the target is Nedd-4-like ubiquitin-protein ligase (Atropin-1-interacting protein 5) (human) (UniProt Q9H0M0). In words: WW domain array probed with purified cytosolic hPRRG4; listed as a hit.

No constants are given. Whether binding was seen depends on the method and setting. Some entries that bind do so weakly or less than the wild type.

B1: cytosolic domain of human PRRG4 (protein, not shown: small tags and cut ends)
chain: CITKCNRLQHPCSSAVYERGRHTPSIIFRRPEEAALSPLPPSVEDAGLPSYEQAVALTRKHSVSPPPPYPGHTKGFRVFKKSMSLPSH
As to B1, the binding result was “binds”.
